System: MCL line JEKO-1
Assay: Therapeutic window vs normal tissues (Table 27)

Structure (SMILES): N.N.[Cl][Pt][Cl] [Cisplatin]
- therapeutic window (TW) (endothelium vs JEKO-1): 50 fold
- therapeutic window (TW) (epithelium and mesenchyme vs JEKO-1): 1.6-8.0
